Some of the results follow.
What was measured:
Experiment in all cases: glycan array binding signal (z-score within array); higher = stronger binding
Details in all cases: glycan notation: IUPAC condensed, linker removed
[1] = target: Neu5Ac(a2-3)Gal(b1-3)GlcNAc6S
Method in brief: (§1)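 The binding signal is a Z-score computed within each array. Data were drawn from 3228 arrays in the Consortium for Functional Glycomics database, restricted to those with a known protein sequence. Scores were averaged over arrays of the same protein sequence at different concentrations or buffers, and over linkers, and negative values can be taken as non-binding.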

[2] = target: Neu5Ac(a2-3)Gal(b1-3)[Fuc(a1-4)]GlcNAc
Method in brief: as §1

[3] = target: Neu5Ac(a2-3)Gal(b1-3)[Fuc(a1-4)]GlcNAc(b1-3)Gal(b1-3)[Fuc(a1-4)]GlcNAc
Method in brief: as §1

[4] = target: Neu5Ac(a2-3)Gal(b1-3)[Fuc(a1-4)]GlcNAc(b1-3)Gal(b1-4)[Fuc(a1-3)]GlcNAc
Method in brief: as §1

[5] = target: Neu5Ac(a2-3)Gal(b1-3)[GlcNAc(b1-6)]GalNAc
Method in brief: as §1

[6] = target: Neu5Ac(a2-3)Gal(b1-3)[Neu5Ac(a2-6)]GalNAc
Method in brief: as §1

[7] = target: Neu5Ac(a2-3)Gal(b1-3)[Neu5Ac(a2-6)]GlcNAc(b1-3)[Fuc(a1-3)[Gal(b1-4)]GlcNAc(b1-6)]Gal(b1-4)Glc
Method in brief: as §1

[8] = target: Neu5Ac(a2-3)Gal(b1-3)]Neu5Ac(a2-3)Gal(b1-4)]GlcNAc
Method in brief: as §1

Neu5Ac(a2-3)Gal(b1-4)Glc = target: Neu5Ac(a2-3)Gal(b1-4)Glc
Method in brief: as §1

[9] = target: Neu5Ac(a2-3)Gal(b1-4)GlcNAc
Method in brief: as §1

[10] = target: Neu5Ac(a2-3)Gal(b1-4)GlcNAc(b1-2)Man
Method in brief: as §1

[11] = target: Neu5Ac(a2-3)Gal(b1-4)GlcNAc(b1-2)Man(a1-3)[GlcNAc(b1-4)][Neu5Ac(a2-3)Gal(b1-4)GlcNAc(b1-2)Man(a1-6)]Man(b1-4)GlcNAc(b1-4)GlcNAc
Method in brief: as §1

[12] = target: Neu5Ac(a2-3)Gal(b1-4)GlcNAc(b1-2)Man(a1-3)[Neu5Ac(a2-3)Gal(b1-4)GlcNAc(b1-2)Man(a1-6)]Man(b1-4)GlcNAc(b1-4)GlcNAc
Method in brief: as §1

[13] = target: Neu5Ac(a2-3)Gal(b1-4)GlcNAc(b1-2)Man(a1-3)[Neu5Ac(a2-3)Gal(b1-4)GlcNAc(b1-2)Man(a1-6)]Man(b1-4)GlcNAc(b1-4)[Fuc(a1-6)]GlcNAc
Method in brief: as §1

[14] = target: Neu5Ac(a2-3)Gal(b1-4)GlcNAc(b1-2)Man(a1-3)[Neu5Ac(a2-6)Gal(b1-4)GlcNAc(b1-2)Man(a1-6)]Man(b1-4)GlcNAc(b1-4)GlcNAc
Method in brief: as §1

[15] = target: Neu5Ac(a2-3)Gal(b1-4)GlcNAc(b1-2)[Neu5Ac(a2-3)Gal(b1-4)GlcNAc(b1-4)]Man(a1-3)[GlcNAc(b1-4)][Neu5Ac(a2-3)Gal(b1-4)GlcNAc(b1-2)[Neu5Ac(a2-3)Gal(b1-4)GlcNAc(b1-6)]Man(a1-6)]Man(b1-4)GlcNAc(b1-4)GlcNAc
Method in brief: as §1

[16] = target: Neu5Ac(a2-3)Gal(b1-4)GlcNAc(b1-2)[Neu5Ac(a2-3)Gal(b1-4)GlcNAc(b1-4)]Man(a1-3)[GlcNAc(b1-4)][Neu5Ac(a2-3)Gal(b1-4)GlcNAc(b1-4)Man(a1-6)]Man(b1-4)GlcNAc(b1-4)GlcNAc
Method in brief: as §1

[17] = target: Neu5Ac(a2-3)Gal(b1-4)GlcNAc(b1-2)[Neu5Ac(a2-3)Gal(b1-4)GlcNAc(b1-6)]Man(a1-6)[Neu5Ac(a2-3)Gal(b1-4)GlcNAc(b1-2)Man(a1-3)][GlcNAc(b1-4)]Man(b1-4)GlcNAc(b1-4)GlcNAc
Method in brief: as §1

[18] = target: Neu5Ac(a2-3)Gal(b1-4)GlcNAc(b1-3)Gal
Method in brief: as §1

[19] = target: Neu5Ac(a2-3)Gal(b1-4)GlcNAc(b1-3)Gal(b1-3)GlcNAc
Method in brief: as §1

[20] = target: Neu5Ac(a2-3)Gal(b1-4)GlcNAc(b1-3)Gal(b1-4)GlcNAc
Method in brief: as §1

[21] = target: Neu5Ac(a2-3)Gal(b1-4)GlcNAc(b1-3)Gal(b1-4)GlcNAc(b1-2)Man(a1-3)[Neu5Ac(a2-3)Gal(b1-4)GlcNAc(b1-3)Gal(b1-4)GlcNAc(b1-2)Man(a1-6)]Man(b1-4)GlcNAc(b1-4)GlcNAc
Method in brief: as §1

[22] = target: Neu5Ac(a2-3)Gal(b1-4)GlcNAc(b1-3)Gal(b1-4)GlcNAc(b1-3)Gal(b1-4)GlcNAc
Method in brief: as §1

[23] = target: Neu5Ac(a2-3)Gal(b1-4)GlcNAc(b1-3)Gal(b1-4)GlcNAc(b1-3)Gal(b1-4)GlcNAc(b1-2)Man(a1-3)[Neu5Ac(a2-3)Gal(b1-4)GlcNAc(b1-3)Gal(b1-4)GlcNAc(b1-3)Gal(b1-4)GlcNAc(b1-2)Man(a1-6)]GalNAc
Method in brief: as §1

[24] = target: Neu5Ac(a2-3)Gal(b1-4)GlcNAc(b1-3)Gal(b1-4)GlcNAc(b1-3)GalNAc
Method in brief: as §1

[25] = target: Neu5Ac(a2-3)Gal(b1-4)GlcNAc(b1-3)Gal(b1-4)GlcNAc(b1-3)[Neu5Ac(a2-3)Gal(b1-4)GlcNAc(b1-3)Gal(b1-4)GlcNAc(b1-6)]GalNAc
Method in brief: as §1

[26] = target: Neu5Ac(a2-3)Gal(b1-4)GlcNAc(b1-3)Gal(b1-4)GlcNAc(b1-6)[Gal(b1-3)]GalNAc
Method in brief: as §1

[27] = target: Neu5Ac(a2-3)Gal(b1-4)GlcNAc(b1-3)Gal(b1-4)[Fuc(a1-3)]GlcNAc
Method in brief: as §1

[28] = target: Neu5Ac(a2-3)Gal(b1-4)GlcNAc(b1-3)GalNAc
Method in brief: as §1

[29] = target: Neu5Ac(a2-3)Gal(b1-4)GlcNAc(b1-3)[Neu5Ac(a2-3)Gal(b1-4)GlcNAc(b1-6)]GalNAc
Method in brief: as §1

B1: SJCP1531 (Schistosoma japonicum) (protein)
chain: MFKVRIINLVNISTVLLLINLLQTKSQVNVEQLVTVLEVNIKAQLKNKTTEVLVEWNPLYQDNSMPEYRKLLDETCKLFLPFVNEKVPPSTYGGECTNANFSEAPQDGSYSRVNAELRLIYKYSDNPQIQTDRLQDDLNDREEFITSESSFVAYNPKFTVKIEKLFIPISESQTTPPPTTAKNDASKKDDDDNGGEDSKAPIDTFAMTASGNKGKKDDDDNGGEDSKAPIDTFAMTASGSKDERSTWTIIGIITLVVLIFVVIGGGITVFVKRC
glycan array binding signal (z-score) [1]: -0.838 | glycan array binding signal (z-score) [2]: -0.374 | glycan array binding signal (z-score) [3]: 1.14 | glycan array binding signal (z-score) [4]: -0.267 | glycan array binding signal (z-score) [5]: 0.205 | glycan array binding signal (z-score) [6]: -0.266 | glycan array binding signal (z-score) [7]: 0.054 | glycan array binding signal (z-score) [8]: -0.188 | glycan array binding signal (z-score) (Neu5Ac(a2-3)Gal(b1-4)Glc): 1.17 | glycan array binding signal (z-score) [9]: 0.335 | glycan array binding signal (z-score) [10]: 1.47 | glycan array binding signal (z-score) [11]: 0.19 | glycan array binding signal (z-score) [12]: 0.938 | glycan array binding signal (z-score) [13]: -1.15 | glycan array binding signal (z-score) [14]: -0.815 | glycan array binding signal (z-score) [15]: 0.502 | glycan array binding signal (z-score) [16]: 0.584 | glycan array binding signal (z-score) [17]: -0.403 | glycan array binding signal (z-score) [18]: -0.242 | glycan array binding signal (z-score) [19]: 1.34 | glycan array binding signal (z-score) [20]: 2.53 | glycan array binding signal (z-score) [21]: -1.45 | glycan array binding signal (z-score) [22]: 2.12 | glycan array binding signal (z-score) [23]: 0.712 | glycan array binding signal (z-score) [24]: -1.21 | glycan array binding signal (z-score) [25]: -0.569 | glycan array binding signal (z-score) [26]: -0.981 | glycan array binding signal (z-score) [27]: -0.676 | glycan array binding signal (z-score) [28]: 1.18 | glycan array binding signal (z-score) [29]: -0.986
